These are yes or no findings as the source states them, for the method shown. Binding seen in cells or lysates may run through a third protein. Some binding calls cover weakened binding; strength is not graded here.
Legend:
[1] = target: YY1-EGFP (Yin Yang 1, wild type) (UniProt P25490); assay: co-IP; YY1-EGFP or YY1-6R-EGFP cotransfected with HDAC1-HA or HDAC3-HA in HEK293T; lysed in IP buffer (10 mM Tris pH8.0, 150 mM NaCl, 1% NP-40, 1 mM EDTA, 10% glycerol); precipitated with anti-EGFP beads, blotted with anti-EGFP and anti-HA
HDAC1-HA = HDAC1-HA (UniProt Q13547); assay: co-IP; YY1-EGFP cotransfected with HDAC1-HA or HDAC3-HA in HEK293T; lysed in IP buffer (10 mM Tris pH8.0, 150 mM NaCl, 1% NP-40, 1 mM EDTA, 10% glycerol); precipitated with anti-HA beads, blotted with anti-HA and anti-EGFP
HDAC3-HA = HDAC3-HA (UniProt O15379); assay: as above

Amino acid sequences for entries named in this document (tags omitted).
UniProt P25490: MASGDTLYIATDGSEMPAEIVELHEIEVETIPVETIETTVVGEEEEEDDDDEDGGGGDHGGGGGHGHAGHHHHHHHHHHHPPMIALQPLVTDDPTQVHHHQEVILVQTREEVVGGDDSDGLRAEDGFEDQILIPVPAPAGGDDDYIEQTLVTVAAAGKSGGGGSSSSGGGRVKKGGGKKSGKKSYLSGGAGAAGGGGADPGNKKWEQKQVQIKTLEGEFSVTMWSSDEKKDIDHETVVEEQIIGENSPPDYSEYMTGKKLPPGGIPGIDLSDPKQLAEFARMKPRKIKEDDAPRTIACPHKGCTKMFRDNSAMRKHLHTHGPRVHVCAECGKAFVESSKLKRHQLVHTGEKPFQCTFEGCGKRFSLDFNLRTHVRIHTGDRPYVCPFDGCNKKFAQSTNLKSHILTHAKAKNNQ
UniProt Q13547: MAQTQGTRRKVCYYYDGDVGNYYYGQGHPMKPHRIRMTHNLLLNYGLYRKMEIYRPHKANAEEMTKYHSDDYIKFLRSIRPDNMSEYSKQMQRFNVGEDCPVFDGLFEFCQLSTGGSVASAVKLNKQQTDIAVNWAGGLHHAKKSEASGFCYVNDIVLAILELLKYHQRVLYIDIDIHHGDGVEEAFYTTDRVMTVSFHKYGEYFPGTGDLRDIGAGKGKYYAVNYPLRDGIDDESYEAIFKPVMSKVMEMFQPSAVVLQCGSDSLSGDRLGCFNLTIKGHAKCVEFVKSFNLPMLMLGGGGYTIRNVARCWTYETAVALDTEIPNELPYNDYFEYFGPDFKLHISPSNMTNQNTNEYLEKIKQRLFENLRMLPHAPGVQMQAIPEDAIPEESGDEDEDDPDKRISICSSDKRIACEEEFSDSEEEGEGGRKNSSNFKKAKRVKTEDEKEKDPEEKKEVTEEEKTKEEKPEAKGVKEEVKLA
UniProt O15379: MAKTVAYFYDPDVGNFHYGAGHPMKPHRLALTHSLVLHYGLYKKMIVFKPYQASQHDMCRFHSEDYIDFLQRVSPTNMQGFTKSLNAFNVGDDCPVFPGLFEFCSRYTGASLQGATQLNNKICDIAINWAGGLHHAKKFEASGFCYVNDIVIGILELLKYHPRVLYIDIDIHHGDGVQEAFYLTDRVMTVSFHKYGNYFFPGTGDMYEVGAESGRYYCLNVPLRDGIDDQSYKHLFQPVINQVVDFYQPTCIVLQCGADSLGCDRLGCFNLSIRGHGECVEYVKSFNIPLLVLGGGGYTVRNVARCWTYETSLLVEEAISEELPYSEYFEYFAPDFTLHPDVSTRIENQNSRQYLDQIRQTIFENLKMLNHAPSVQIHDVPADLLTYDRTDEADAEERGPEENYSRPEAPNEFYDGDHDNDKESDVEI

Row | Substance | binding [1] | binding (HDAC1-HA) | binding (HDAC3-HA)
1 | HDAC1-HA (from UniProt Q13547 1-482) | binds | – | –
2 | YY1-EGFP (Yin Yang 1, wild type) (from UniProt P25490 1-414) | – | binds | binds
3 | HDAC3-HA (from UniProt O15379 1-428) | binds | – | –

Reference: publication PMC9691727
